Laboratory results as given in publication PMC9479574.
No constants are given. Whether binding was seen depends on the method and setting. In cells and extracts the contact can be indirect. A result given as binding can be weak or reduced; the word gives no strength.

Chains of the proteins cited; added tags and fusions are not shown. Lines headed by an entry give the natural chain unless they say otherwise; changes in a name come on top.
UniProt O15269: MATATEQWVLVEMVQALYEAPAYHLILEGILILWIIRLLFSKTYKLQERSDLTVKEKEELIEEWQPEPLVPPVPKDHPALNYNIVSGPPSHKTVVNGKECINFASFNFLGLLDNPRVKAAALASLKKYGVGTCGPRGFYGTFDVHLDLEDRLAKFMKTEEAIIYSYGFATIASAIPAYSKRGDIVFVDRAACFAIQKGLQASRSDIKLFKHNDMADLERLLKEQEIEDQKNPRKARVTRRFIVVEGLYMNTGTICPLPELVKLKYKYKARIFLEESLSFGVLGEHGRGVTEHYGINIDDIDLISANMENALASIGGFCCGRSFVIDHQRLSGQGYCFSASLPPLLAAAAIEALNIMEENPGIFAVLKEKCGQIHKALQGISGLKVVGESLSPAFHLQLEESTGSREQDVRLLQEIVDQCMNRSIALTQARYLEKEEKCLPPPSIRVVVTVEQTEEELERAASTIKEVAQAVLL

Molecular target: SPTLC1^FLAG ex2del variant (missing the whole of exon 2; ALS) (human) (UniProt O15269)
Assay: co-IP; FLAG immunoprecipitation (anti-FLAG magnetic M2 beads, 3 hours) of SPTLC1^FLAG and variants from 20,000g membrane fractions solubilized with digitonin (1% wt/vol; 50 mM Tris pH 7.4, 150 mM NaCl, 20 mM MgCl2); eluates immunoblotted for SPTLC2 and ORMDLs

binding: binds
B1: SPTLC2 (protein, UniProt O15270 1-562)
chain: MRPEPGGCCCRRTVRANGCVANGEVRNGYVRSSAAAAAAAAAGQIHHVTQNGGLYKRPFNEAFEETPMLVAVLTYVGYGVLTLFGYLRDFLRYWRIEKCHHATEREEQKDFVSLYQDFENFYTRNLYMRIRDNWNRPICSVPGARVDIMERQSHDYNWSFKYTGNIIKGVINMGSYNYLGFARNTGSCQEAAAKVLEEYGAGVCSTRQEIGNLDKHEELEELVARFLGVEAAMAYGMGFATNSMNIPALVGKGCLILSDELNHASLVLGARLSGATIRIFKHNNMQSLEKLLKDAIVYGQPRTRRPWKKILILVEGIYSMEGSIVRLPEVIALKKKYKAYLYLDEAHSIGALGPTGRGVVEYFGLDPEDVDVMMGTFTKSFGASGGYIGGKKELIDYLRTHSHSAVYATSLSPPVVEQIITSMKCIMGQDGTSLGKECVQQLAENTRYFRRRLKEMGFIIYGNEDSPVVPLMLYMPAKIGAFGREMLKRNIGVVVVGFPATPIIESRARFCLSAAHTKEILDTALKEIDEVGDLLQLKYSRHRLVPLLDRPFDETTYEETED
